Experimental findings from the supplement of paper PMC7666118 are described below.

The chains behind the UniProt entries cited, without tags or fusion partners. Where a name states a change or a piece, a line headed by the entry shows the natural chain unless it says otherwise.
UniProt O60880: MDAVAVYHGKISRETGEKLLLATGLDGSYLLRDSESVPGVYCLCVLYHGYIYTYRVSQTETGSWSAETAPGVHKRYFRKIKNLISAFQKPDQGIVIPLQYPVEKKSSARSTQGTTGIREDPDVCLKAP
UniProt Q96DB5: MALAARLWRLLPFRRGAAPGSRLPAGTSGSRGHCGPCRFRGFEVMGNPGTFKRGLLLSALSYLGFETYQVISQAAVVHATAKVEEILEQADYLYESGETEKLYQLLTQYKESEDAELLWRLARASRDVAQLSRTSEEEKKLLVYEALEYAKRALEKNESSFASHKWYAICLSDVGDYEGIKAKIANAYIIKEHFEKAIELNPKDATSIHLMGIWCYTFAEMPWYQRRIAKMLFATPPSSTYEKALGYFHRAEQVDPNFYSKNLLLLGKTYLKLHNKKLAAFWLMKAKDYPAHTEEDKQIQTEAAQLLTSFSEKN
UniProt Q13761, whole entry: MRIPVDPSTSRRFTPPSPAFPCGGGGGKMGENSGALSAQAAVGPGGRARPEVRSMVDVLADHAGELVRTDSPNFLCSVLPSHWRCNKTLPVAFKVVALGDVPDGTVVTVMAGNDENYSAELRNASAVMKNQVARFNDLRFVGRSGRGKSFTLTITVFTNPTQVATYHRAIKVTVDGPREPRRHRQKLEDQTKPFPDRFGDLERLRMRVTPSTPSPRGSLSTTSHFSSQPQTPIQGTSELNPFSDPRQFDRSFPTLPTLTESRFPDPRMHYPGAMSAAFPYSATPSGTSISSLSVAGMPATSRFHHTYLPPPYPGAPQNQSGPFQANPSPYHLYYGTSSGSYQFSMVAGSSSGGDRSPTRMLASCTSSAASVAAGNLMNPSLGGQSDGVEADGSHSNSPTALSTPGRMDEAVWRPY
UniProt P35251: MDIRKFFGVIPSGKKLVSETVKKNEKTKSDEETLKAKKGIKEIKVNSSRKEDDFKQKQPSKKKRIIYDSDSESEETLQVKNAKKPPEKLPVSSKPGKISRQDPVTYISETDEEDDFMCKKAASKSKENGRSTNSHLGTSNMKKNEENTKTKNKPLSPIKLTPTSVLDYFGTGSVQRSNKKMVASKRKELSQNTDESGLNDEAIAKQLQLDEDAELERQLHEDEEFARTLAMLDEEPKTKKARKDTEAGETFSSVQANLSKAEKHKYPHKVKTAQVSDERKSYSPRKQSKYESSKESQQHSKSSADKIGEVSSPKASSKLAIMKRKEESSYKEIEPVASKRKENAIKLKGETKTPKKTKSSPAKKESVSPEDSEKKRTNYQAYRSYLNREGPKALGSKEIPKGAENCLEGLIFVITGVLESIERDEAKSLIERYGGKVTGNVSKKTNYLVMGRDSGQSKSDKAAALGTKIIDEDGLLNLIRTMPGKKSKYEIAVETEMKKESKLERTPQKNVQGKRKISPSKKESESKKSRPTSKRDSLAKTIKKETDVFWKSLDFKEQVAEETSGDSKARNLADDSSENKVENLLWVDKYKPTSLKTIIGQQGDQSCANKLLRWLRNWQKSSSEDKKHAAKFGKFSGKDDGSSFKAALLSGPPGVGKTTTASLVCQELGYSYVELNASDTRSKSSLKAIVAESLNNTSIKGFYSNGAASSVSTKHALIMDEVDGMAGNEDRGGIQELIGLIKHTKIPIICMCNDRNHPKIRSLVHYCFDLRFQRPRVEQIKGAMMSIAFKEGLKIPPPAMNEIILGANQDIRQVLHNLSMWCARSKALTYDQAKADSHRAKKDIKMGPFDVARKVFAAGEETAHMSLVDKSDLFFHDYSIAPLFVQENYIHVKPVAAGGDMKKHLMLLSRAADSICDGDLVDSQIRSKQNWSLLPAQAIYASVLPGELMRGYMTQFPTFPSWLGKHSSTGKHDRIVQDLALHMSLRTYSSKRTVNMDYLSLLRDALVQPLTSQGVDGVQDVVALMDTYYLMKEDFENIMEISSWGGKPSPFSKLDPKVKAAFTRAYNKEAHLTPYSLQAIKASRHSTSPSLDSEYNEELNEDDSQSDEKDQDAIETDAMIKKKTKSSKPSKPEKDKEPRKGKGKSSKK
UniProt Q14699: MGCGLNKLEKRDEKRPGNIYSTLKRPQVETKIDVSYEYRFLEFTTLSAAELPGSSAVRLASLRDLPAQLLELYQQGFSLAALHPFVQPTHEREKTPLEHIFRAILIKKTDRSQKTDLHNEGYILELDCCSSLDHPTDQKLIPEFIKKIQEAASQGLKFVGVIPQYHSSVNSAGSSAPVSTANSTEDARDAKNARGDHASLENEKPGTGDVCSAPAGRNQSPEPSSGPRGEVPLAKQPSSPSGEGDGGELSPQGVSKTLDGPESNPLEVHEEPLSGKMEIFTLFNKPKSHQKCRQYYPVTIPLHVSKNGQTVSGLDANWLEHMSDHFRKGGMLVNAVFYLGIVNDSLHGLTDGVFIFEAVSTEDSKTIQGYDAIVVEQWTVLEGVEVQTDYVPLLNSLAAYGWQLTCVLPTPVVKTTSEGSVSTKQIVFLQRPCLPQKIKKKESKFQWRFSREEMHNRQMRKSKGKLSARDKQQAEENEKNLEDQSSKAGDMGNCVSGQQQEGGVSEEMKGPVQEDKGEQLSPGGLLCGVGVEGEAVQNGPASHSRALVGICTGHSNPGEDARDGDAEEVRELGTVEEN
UniProt Q9HD89: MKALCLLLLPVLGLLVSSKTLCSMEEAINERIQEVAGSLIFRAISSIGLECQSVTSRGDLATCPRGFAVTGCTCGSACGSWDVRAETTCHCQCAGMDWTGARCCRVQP
UniProt Q5UIP0: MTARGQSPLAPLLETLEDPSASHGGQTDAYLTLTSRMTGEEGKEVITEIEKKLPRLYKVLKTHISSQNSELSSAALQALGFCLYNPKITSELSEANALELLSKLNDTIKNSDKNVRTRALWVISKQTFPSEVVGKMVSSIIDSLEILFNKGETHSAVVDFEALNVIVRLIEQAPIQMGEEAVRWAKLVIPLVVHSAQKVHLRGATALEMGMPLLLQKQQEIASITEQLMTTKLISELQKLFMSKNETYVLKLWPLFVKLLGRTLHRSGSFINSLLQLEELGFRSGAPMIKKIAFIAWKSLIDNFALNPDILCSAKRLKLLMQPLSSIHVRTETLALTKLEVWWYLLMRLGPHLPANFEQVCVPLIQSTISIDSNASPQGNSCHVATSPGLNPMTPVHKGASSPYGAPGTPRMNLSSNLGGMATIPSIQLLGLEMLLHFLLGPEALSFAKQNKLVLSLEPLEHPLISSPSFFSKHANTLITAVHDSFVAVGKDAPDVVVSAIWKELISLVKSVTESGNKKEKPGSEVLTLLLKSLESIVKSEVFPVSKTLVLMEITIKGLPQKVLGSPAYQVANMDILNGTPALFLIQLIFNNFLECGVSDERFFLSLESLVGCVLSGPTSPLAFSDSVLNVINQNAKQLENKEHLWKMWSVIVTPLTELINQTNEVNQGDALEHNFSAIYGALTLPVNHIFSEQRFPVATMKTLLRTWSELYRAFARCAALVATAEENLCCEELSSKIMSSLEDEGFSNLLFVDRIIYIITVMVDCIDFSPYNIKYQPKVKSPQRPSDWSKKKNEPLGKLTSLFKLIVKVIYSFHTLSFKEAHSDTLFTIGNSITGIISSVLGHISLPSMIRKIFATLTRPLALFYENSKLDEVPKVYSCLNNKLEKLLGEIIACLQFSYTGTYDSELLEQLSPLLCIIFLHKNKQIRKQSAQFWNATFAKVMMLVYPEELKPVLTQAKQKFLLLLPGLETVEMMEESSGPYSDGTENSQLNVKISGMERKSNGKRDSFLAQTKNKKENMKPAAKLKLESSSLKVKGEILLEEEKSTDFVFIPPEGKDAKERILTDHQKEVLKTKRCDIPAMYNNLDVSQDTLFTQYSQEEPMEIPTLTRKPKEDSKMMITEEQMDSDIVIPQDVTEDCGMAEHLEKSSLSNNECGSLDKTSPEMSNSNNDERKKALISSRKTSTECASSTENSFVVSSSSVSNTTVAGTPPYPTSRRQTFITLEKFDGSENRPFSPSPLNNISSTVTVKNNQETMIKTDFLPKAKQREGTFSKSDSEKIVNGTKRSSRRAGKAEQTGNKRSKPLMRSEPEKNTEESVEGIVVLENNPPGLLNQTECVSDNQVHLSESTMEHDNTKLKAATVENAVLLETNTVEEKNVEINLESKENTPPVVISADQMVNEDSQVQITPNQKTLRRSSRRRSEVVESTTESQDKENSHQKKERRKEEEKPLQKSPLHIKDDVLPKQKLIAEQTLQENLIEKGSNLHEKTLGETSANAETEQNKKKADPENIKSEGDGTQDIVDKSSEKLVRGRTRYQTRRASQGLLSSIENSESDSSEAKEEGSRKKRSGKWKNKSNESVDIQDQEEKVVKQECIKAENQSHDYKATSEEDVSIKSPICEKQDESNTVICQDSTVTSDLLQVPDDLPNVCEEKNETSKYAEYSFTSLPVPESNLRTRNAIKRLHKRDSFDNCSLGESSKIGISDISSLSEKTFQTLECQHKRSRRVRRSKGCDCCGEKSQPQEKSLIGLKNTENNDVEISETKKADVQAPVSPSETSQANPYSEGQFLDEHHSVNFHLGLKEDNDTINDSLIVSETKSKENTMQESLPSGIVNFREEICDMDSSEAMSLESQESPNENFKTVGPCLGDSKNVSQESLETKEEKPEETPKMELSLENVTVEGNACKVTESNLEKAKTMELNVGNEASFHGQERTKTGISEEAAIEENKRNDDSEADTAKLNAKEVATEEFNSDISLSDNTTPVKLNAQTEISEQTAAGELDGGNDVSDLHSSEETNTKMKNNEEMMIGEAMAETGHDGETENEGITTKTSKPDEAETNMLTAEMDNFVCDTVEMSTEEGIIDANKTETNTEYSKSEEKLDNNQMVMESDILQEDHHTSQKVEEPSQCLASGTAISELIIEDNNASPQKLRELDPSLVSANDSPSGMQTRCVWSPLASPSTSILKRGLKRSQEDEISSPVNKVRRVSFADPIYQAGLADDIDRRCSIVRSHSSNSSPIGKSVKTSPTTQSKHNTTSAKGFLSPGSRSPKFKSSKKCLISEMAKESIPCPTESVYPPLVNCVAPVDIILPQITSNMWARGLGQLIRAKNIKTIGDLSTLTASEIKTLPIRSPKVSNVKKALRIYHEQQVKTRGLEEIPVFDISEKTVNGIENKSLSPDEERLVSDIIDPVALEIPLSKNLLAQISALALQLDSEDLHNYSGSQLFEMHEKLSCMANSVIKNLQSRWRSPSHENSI
UniProt Q96ES7: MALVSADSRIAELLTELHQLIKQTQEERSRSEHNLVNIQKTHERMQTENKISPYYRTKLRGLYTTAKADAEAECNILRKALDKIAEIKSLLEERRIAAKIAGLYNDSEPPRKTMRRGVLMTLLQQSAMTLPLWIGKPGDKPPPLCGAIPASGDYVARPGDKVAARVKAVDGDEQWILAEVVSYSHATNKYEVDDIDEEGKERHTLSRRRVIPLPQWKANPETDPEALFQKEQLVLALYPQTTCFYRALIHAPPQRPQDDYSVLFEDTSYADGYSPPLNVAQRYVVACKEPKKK
UniProt Q8N5L8: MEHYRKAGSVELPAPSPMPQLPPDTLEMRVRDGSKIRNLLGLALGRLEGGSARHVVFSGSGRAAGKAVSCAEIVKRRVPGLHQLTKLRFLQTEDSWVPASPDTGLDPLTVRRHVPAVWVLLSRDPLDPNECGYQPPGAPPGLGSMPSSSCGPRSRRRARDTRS
UniProt P78346: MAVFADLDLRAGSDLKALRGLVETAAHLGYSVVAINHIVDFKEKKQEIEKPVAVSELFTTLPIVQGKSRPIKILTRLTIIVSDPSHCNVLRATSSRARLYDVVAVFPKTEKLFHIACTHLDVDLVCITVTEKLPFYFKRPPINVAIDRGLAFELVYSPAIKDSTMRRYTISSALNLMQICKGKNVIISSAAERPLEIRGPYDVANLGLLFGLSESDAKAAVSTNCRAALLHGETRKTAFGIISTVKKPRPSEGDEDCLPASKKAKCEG
UniProt Q96AT9: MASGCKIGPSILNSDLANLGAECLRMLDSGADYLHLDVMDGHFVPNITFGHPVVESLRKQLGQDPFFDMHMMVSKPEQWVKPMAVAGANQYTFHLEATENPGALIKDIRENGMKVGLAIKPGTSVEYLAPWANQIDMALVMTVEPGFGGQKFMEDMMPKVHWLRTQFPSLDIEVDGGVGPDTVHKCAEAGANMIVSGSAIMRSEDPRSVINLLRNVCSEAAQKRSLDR
UniProt Q9H299: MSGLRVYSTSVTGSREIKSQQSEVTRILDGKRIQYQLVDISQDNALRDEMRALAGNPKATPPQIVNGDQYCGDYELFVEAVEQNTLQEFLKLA
UniProt P55735: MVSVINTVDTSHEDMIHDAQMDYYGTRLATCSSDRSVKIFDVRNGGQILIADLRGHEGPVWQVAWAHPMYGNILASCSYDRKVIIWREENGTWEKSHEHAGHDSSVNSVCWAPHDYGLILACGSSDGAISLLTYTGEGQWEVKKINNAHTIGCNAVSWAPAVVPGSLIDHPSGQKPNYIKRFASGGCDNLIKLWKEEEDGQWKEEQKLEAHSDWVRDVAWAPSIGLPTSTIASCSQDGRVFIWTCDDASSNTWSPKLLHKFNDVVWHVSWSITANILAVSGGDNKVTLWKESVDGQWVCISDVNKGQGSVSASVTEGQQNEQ

The other results are listed elsewhere or left out.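 Rule for the calls: active = dose-dependent thermal stabilisation significant by F-test of dose-response against flat model at 10% FDR; inactive = not significant.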

Compound in this test: Nc1nc2c(ncn2[C@@H]2O[C@H](COP(=O)(O)OP(=O)(O)OP(=O)(O)O)[C@@H](O)[C@H]2O)c(=O)[nH]1
In words: dose-dependent thermal stabilisation call (2D-TPP, DLPTP, 10% FDR) (binary (1 = stabilised)); higher = stabilised by the compound. Conditions: system: Jurkat gel-filtered lysate; concentration range 1-500 µM. As for the experimental part:
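2D thermal proteome profiling in gel-filtered Jurkat E6.1 lysate (2 mg/ml) treated with NaGTP (0, 1, 10, 100, 500 uM) for 10 min at room temperature, then heated 3 min at one of 12 temperatures (42-63.9 C). Soluble protein was quantified by TMT10 MS. The value is the DLPTP call of the paper: dose-dependent thermal stabilisation over all temperatures at 10% FDR (F-test of a dose-response against a flat model); one experiment, one call per tested protein.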
On to SH2D1A (UniProt O60880), for which the “dose-dependent thermal stabilisation call” value was inactive: 0.
The figure for RNF14 (UniProt Q9UBS8) is inactive: 0; for RPL13 (UniProt P26373) it is inactive: 0; for RMND5A (UniProt Q9H871) it is inactive: 0.
With RXRA (UniProt P19793), the “dose-dependent thermal stabilisation call” value was active: 1.
With SBDS (UniProt Q9Y3A5) the figure was inactive: 0.
SENP8 (UniProt Q96LD8): the “dose-dependent thermal stabilisation call” value was inactive: 0.
As to RNF20 (UniProt Q5VTR2), the “dose-dependent thermal stabilisation call” value was inactive: 0.
With RREB1 (UniProt Q92766) the figure was inactive: 0.
With RTCA (UniProt O00442) the figure was active: 1.
For SARNP (UniProt P82979), the “dose-dependent thermal stabilisation call” value was inactive: 0.
Turning to RMDN1 (UniProt Q96DB5), the “dose-dependent thermal stabilisation call” value is inactive: 0.
With SAE1 (UniProt Q9UBE0) the figure was inactive: 0; with RUNX3 (UniProt Q13761), inactive: 0; with SET (UniProt Q01105), inactive: 0.
The figure for RPS20 (UniProt P60866) is inactive: 0.
Take RFC1 (UniProt P35251): the “dose-dependent thermal stabilisation call” value was inactive: 0.
With RFTN1 (UniProt Q14699) the figure was inactive: 0; with RUVBL2 (UniProt Q9Y230), inactive: 0.
For the target RFXANK (UniProt O14593), the “dose-dependent thermal stabilisation call” value was inactive: 0.
The figure for SERPINB8 (UniProt P50452) is inactive: 0.
Regarding RHOG (UniProt P84095), the “dose-dependent thermal stabilisation call” value was inactive: 0.
As for SEC22B (UniProt O75396), the “dose-dependent thermal stabilisation call” value was inactive: 0.
Take RETN (UniProt Q9HD89): the “dose-dependent thermal stabilisation call” value is inactive: 0.
With RPRD1B (UniProt Q9NQG5) the figure was inactive: 0.
For RFX7 (UniProt Q2KHR2), the “dose-dependent thermal stabilisation call” value was inactive: 0.
As for RIF1 (UniProt Q5UIP0), the “dose-dependent thermal stabilisation call” value is inactive: 0.
With SGF29 (UniProt Q96ES7) the figure was inactive: 0; with RPL34 (UniProt P49207), inactive: 0.
With SDHA (UniProt P31040) the figure was inactive: 0; with RPP25L (UniProt Q8N5L8), inactive: 0.
Turning to RTF1 (UniProt Q92541), the “dose-dependent thermal stabilisation call” value was inactive: 0.
As to RPP30 (UniProt P78346), the “dose-dependent thermal stabilisation call” value is inactive: 0.
RPL3 (UniProt P39023): the “dose-dependent thermal stabilisation call” value is inactive: 0.
The figure for RPS21 (UniProt P63220) is inactive: 0; for RPE (UniProt Q96AT9) it is inactive: 0; for RNF181 (UniProt Q9P0P0) it is inactive: 0.
As for SH3BGRL3 (UniProt Q9H299), the “dose-dependent thermal stabilisation call” value is inactive: 0.
With RPL12 (UniProt P30050), the “dose-dependent thermal stabilisation call” value was inactive: 0.
Regarding SEC13 (UniProt P55735), the “dose-dependent thermal stabilisation call” value is inactive: 0.
